From article PMC6907756
These are yes or no findings as the source states them, for the method shown. In cells and extracts the contact can be indirect. A result given as binding can be weak or reduced; the word gives no strength. Where a sequence is shown, tags or fusion partners need not be part of it.

Biological target: T1, FLAG-tagged N-terminal half of Δ5 mA3 (Δ5Nh) (mouse) (UniProt Q99J72)
T1 sequence: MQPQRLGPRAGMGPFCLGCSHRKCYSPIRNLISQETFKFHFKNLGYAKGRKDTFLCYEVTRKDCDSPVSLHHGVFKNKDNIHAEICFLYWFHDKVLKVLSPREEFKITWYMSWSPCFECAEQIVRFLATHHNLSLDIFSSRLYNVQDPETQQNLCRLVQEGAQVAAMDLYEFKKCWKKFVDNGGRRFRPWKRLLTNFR
Assay: co-IP; IVT reaction co-expressing Pr180gag-pol and FLAG-tagged mA3 forms (20 h, 30°C), 1 ul diluted in 1000 ul IP buffer (50 mM Tris pH 7.6, 150 mM NaCl, 1% IGEPAL CA-630, 2 mM EDTA); anti-FLAG mAb agarose, 2 h at 4°C; immunoblot with anti-MuLV protease Ab

With “Pr180gag-pol precursor polyprotein of F-MuLV strain 57 (Friend murine leukemia virus strain 57)” the binding was “binds”.
